From PubChem BioAssay AID504847 (National Center for Advancing Translational Sciences (NCATS), 2011)
Among all 400,000 compounds or so, about 3,700 (0.93%) were called active. The inconclusive results got no clear call from the source; some entries with a clear call stand among them for comparison. Calls follow the shape of the dose curve; as a rule, active = well fitted inhibition curve with a large enough effect; inconclusive = small, poorly fitted or top-dose-only effect, or another doubt; inactive = no such curve, though single readings can be large or run the other way. Where the call is inconclusive, the potency comes from a doubtful curve fit.

The chains behind the UniProt entries cited, without tags or fusion partners. Where a name states a change or a piece, a line headed by the entry shows the natural chain unless it says otherwise.
UniProt P11473: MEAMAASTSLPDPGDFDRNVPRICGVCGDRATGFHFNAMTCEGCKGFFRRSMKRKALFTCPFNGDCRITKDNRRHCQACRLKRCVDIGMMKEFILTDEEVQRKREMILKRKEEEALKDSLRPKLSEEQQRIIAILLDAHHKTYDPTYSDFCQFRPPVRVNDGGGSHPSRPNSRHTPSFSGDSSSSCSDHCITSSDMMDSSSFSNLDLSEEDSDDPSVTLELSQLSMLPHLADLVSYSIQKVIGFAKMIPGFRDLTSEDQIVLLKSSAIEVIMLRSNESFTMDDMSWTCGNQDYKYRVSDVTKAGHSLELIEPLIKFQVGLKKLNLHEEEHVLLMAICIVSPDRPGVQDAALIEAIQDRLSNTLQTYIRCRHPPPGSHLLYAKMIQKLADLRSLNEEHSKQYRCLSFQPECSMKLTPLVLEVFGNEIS

Target: Vitamin D3 receptor (Homo sapiens) (UniProt P11473)
Assay: Inhibitors of the vitamin D receptor (VDR): qHTS
Settings: VDR-SRC2-3 peptide fluorescence polarization, 2 h; max response, negative = inhibition: stronger effect = lower value
Summary of the method: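 Signal is fluorescence polarization, reporting how far test compounds block the interaction of VDR with the SRC2-3 coregulator peptide after a 2 h room-temperature incubation.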
% is scaled to controls: 0 for no effect and ±100 for the full control effect; potency is read from the fitted curve at half-maximal effect.

Potency, active:
Cc1ccc(/C=C/C(=O)NCCc2cccc(Cl)c2)o1 79.4 µM
CCS(=O)(=O)c1cc([N+](=O)[O-])c(Sc2ccccc2N)s1 28.2 µM
Cc1ccc(S(=O)(=O)ON2C(=O)c3ccccc3C2=O)c(C)c1 17.8 µM
O=C1C=CC(=O)N1c1ccccc1N1C(=O)C=CC1=O 3.16 µM
Cc1cccc(/C=C/C(=O)c2ccc(NC3=NCCCS3)cc2)c1 20 µM
O=c1[nH]c(/C=C\c2cccc(F)c2)nc(O)c1[N+](=O)[O-] 39.8 µM
CC1=C(C#N)C(=O)NC(=O)/C1=C\c1ccc(-c2cc(C)c(C)cc2[N+](=O)[O-])o1 25.1 µM

Potency, inconclusive:
Cn1c(SCC(=O)NCC2CCCO2)nnc1-c1c[nH]c2ccccc12 (centres undefined) 5.62 µM [inhibitor, full curve, poor fit]
CCCc1nc2ccc(NC(=O)c3cccs3)cc2c(=O)n1Cc1ccccc1Cl 56.2 µM [inhibitor, partial curve, poor fit]
O=C(Cn1cnc2sc(-c3ccccc3)cc2c1=O)NCc1ccco1 7.08 µM [inhibitor, single point]
CC(C)C(Cl)=NOC(=O)Nc1ccc(F)cc1 79.4 µM [inhibitor, single point]
O=C(O)CSc1nnc(-c2ccccc2)c(-c2ccccc2)n1 28.2 µM [inhibitor, partial curve, poor fit]
COc1ccc(OC)c(NC(=O)c2nc(S(=O)(=O)Cc3ccc(F)cc3)ncc2Cl)c1 11.2 µM [inhibitor, partial curve, poor fit]
CCOc1ccccc1N1CSC2=C(C#N)C(c3c(OC)ccc4ccccc34)CC(=O)N2C1 (centres undefined) 15.8 µM [inhibitor, full curve, poor fit]
Cc1ccc2ccccc2c1NC(=O)c1ccco1 3.16 µM [inhibitor, partial curve, poor fit]
CC(=O)C1=C(C)NC(SCc2cccc([N+](=O)[O-])c2)=C(C#N)C1c1ccco1 (centres undefined) 89.1 µM [inhibitor, single point]
O=[N+]([O-])c1cccc(-c2nnc3n2CCCCC3)c1 56.2 µM [inhibitor, partial curve, poor fit]
S=c1nc(-c2csc3c2CCCC3)[nH][nH]1 89.1 µM [inhibitor, single point]
COc1ccc(Oc2nc3c(C)cccn3c(=O)c2/C=C(\C#N)C(N)=O)cc1 56.2 µM [inhibitor, partial curve, poor fit]
Cc1c(C(=O)c2ccc(Cl)cc2Cl)cnc2cc3c(cc12)OCO3 28.2 µM [inhibitor, single point]
COc1ccccc1NC(=O)c1cc([N+](=O)[O-])ccc1N1CCOCC1 31.6 µM [inhibitor, partial curve, poor fit]
Cc1ccc(S(=O)(=O)N(Cc2nccn2C)C(C)C)cc1 11.2 µM [inhibitor, partial curve]
CSCCC(NS(=O)(=O)c1ccc(C)cc1)C(=O)Nc1ccc(C)cn1 (centres undefined) 89.1 µM [inhibitor, single point]
C[C@@H]1C(=O)N(S(=O)(=O)c2ccc([N+](=O)[O-])cc2)[C@H]1c1ccccc1 2.82 µM [inhibitor, partial curve, poor fit]
CCCCSc1n[nH]c(=S)c2nc[nH]c12 1.78 µM [inhibitor, partial curve, poor fit]
O=[N+]([O-])c1ccc2nc(NCCCO)nc(-c3ccccc3)c2c1 56.2 µM [inhibitor, partial curve, poor fit]
Cc1ncoc1C(=O)N1CCCC(C(=O)c2ccc(Oc3ccccc3)cc2)C1 (centres undefined) 56.2 µM [inhibitor, partial curve, poor fit]
Cc1cccc(NC2=NC3(CCCCC3)N=C(N)N2)c1C 89.1 µM [inhibitor, single point]
CC1(C)CC[C@]2(C(=O)O)CC[C@]3(C)C(=CC[C@@H]4[C@@]5(C)CC[C@H](O[C@@H]6O[C@H](C(=O)O)[C@@H](O)[C@H](O[C@@H]7OC[C@H](O)[C@H](O)[C@H]7O)[C@H]6O)C(C)(C)[C@@H]5CC[C@]43C)[C@@H]2C1 79.4 µM [inhibitor, single point]
Cn1c(SCC(=O)c2ccccc2)nc2cccnc21 5.62 µM [inhibitor, full curve, poor fit]
Nc1ccc2nc(-c3cccc(-c4nc5ccc(N)cc5[nH]4)c3)[nH]c2c1 100 µM [inhibitor, single point]
CCCC(=O)Nc1sc(Cc2ccccc2)c(C)c1C(N)=O 25.1 µM [inhibitor, full curve, poor fit]
COc1cc(SC#N)ccc1N=Cc1c(C)[nH]n(-c2ccc(C)c(C)c2)c1=O 89.1 µM [inhibitor, partial curve, poor fit]
N/N=C(/Cc1nc2ccccc2[nH]1)c1ccc([N+](=O)[O-])cc1 89.1 µM [inhibitor, single point]
COc1cc(-c2nnc(NC(=O)CCS(=O)(=O)c3ccc(F)cc3)o2)cc(OC)c1OC 70.8 µM [inhibitor, single point]
CCC(C)S(=O)(=O)c1oc(-c2cccs2)nc1S(=O)(=O)c1ccccc1 (centres undefined) 25.1 µM [inhibitor, partial curve, poor fit]
CC(=O)C1=C(C)NC(SCC(N)=O)=C(C#N)C1C (centres undefined) 44.7 µM [inhibitor, partial curve, poor fit]
Cc1ccc(S(=O)(=O)Oc2ccccc2/C=N/NC(=O)c2nn(C)cc2[N+](=O)[O-])cc1 100 µM [inhibitor, single point]
Cc1ccnc(NS(=O)(=O)c2ccc(NC(=O)c3ccc(S(=O)(=O)N4CCCC4)cc3)cc2)n1 89.1 µM [inhibitor, single point]
COc1cccc2c(=O)c(SC(F)(F)C(F)C(F)(F)F)c(C)[nH]c12 (centres undefined) 44.7 µM [inhibitor, partial curve]
Cc1nc(-c2ccccc2)sc1C(=O)/C=C/c1ccc(Cl)cc1 63.1 µM [inhibitor, partial curve, poor fit]
O=C(CN1CCCCC1)NNC(=O)c1ccc([N+](=O)[O-])cc1 89.1 µM [inhibitor, single point]
Cc1ccc2nc(SCc3cn4cccnc4n3)[nH]c2c1 56.2 µM [inhibitor, partial curve, poor fit]
CCCn1nc(NC(=O)C2CCCO2)c2cc3cc(C)ccc3nc21 (centres undefined) 4.47 µM [inhibitor, full curve, poor fit]
O=C(N/N=C/c1ccc(N2CCOCC2)o1)c1ccccc1[N+](=O)[O-] 31.6 µM [inhibitor, full curve, poor fit]
Cc1ccccc1S(=O)(=O)N1[C@@H](c2ccccc2)C(C(=O)O)=CC[C@H]1c1ccc(Cl)cc1 89.1 µM [inhibitor, partial curve]
CC(C)(C)c1ccc(C(=O)NCc2nnc(SCC(=O)N3CCCc4ccccc43)n2-c2ccccc2)cc1 100 µM [inhibitor, single point]
CCCN(CCC)C(=O)CC(c1ccc(F)cc1)c1ccco1 (centres undefined) 50.1 µM [inhibitor, partial curve, poor fit]
CCc1cc2c(SCC(=O)N3CC(=O)Nc4ccccc43)ncnc2s1 25.1 µM [inhibitor, partial curve, poor fit]

Quoted at random: 4 entries already listed
Potency, inconclusive:
CC(=O)C1=C(C)NC(SCC(N)=O)=C(C#N)C1C (centres undefined) 44.7 µM [inhibitor, partial curve, poor fit]
CCCCSc1n[nH]c(=S)c2nc[nH]c12 1.78 µM [inhibitor, partial curve, poor fit]
COc1ccc(Oc2nc3c(C)cccn3c(=O)c2/C=C(\C#N)C(N)=O)cc1 56.2 µM [inhibitor, partial curve, poor fit]
CCc1cc2c(SCC(=O)N3CC(=O)Nc4ccccc43)ncnc2s1 25.1 µM [inhibitor, partial curve, poor fit]

Following part:

Max response, negative = inhibition, inactive:
COCCn1c(=O)cnc2cnc(OC)nc21 8.54%
CCOCCCN(Cc1ccco1)C(=O)c1cc2c(s1)-c1c(C)cccc1OC2 -15.8%
Cc1nc2cnc(N(C)C)nc2n(C2CC2)c1=O -5.43%
Cc1c(CCOC(=O)CC23CC4CC(CC(C4)C2)C3)sc[n+]1Cc1ccccc1 11.7%
O=C(O)CC1C(=O)NCCN1CCCc1ccccc1 (centres undefined) -8.87%
C[C@@H]1Nc2ccc(Cl)cc2S(=O)(=O)N1 -1.19%
Cc1ccc(S(=O)(=O)Nc2nc3ccccc3nc2Nc2cccc(S(=O)(=O)N3CCCC3)c2)cc1 12.6%
COc1ccc(-c2nn(-c3ccccc3)cc2/C=N/n2cnnc2)cc1OC -11.5%
O=C(COC(=O)c1ccc2ncsc2c1)NC(=O)C1CCCCC1 -8.01%
O=C(N/N=C/c1cc(Br)cc(Cl)c1O)c1ccc2c(c1)OCO2 11.6%
CCOC(=O)c1c(C(F)(F)F)nc2ncccn12 17.2%
Cc1ccc2[nH]c(=O)c(CN(Cc3cccnc3)Cc3nnnn3CCN3CCOCC3)cc2c1 3.07%
COc1cccc(OC)c1OCCCCN1CCCC1 27.1%
COc1cccc(Nc2ncccc2C(=O)NCc2ccccc2)c1 0.874%
Cc1ccc2c(c1)cc(CN(Cc1ccc3c(c1)OCO3)C(=O)c1ccccc1)c1nnnn12 15.9%
